Our source for the survivor count and T/C values is PubChem BioAssay AID248 (DTP/NCI, 2004).

The list is a part of this screen's results and no random one: it gathers tests that were run many times, whatever their T/C, doses with no T/C, and many T/C values between a quarter and a half above the control. Further doses and runs are listed elsewhere. T/C: endpoint of the treated group in % of that of the vehicle group. Some entries give survivors of the animals treated and no T/C: the source holds a T/C of zero for them, seemingly a mark for toxic or unscored doses. Some survivor counts are full or nearly so, which does not show that the dose was tolerated: survival well below the control is almost never listed, so the zero probably covers shortened survival too. Counts of survivors are from the toxicity check (mostly the fifth day) where no day follows; animals may have died later. Schedule codes are those of the source, taken here to give the interval after Q, in days (D) or hours (H), and the number of doses after X. Some doses were run more than once; their values stand side by side, smallest first. Some schedules carry Z or #; the key to these is not given. For survival time, the PubChem record calls one and a half times the control and up active, and a quarter to a half above the control has no call in these data; cut-offs in other NCI protocols can differ. Some T/C values are followed by the survivors on the day toxicity was checked, most often the fifth; where none is given, no animal had died by that day.

For the test, the system named is L1210 leukemia ip in BDF1 mice, survival T/C. As to the kind of experiment: NCI In Vivo Anticancer Drug Screen. Data for tumor model L1210 Leukemia (intraperitoneal) in B6D2F1 (BDF1) mice. The note with it: T/C endpoint: mean survival time, higher T/C = longer survival.
Setting [1] is: dose: 400.0 mg/kg/injection, schedule: Q01DX001 (ip), vehicle: saline.
[2] abbreviates: dose: 400.0 mg/kg/injection, schedule: Q01DX001 (ip), vehicle: Klucel (hydroxypropylcellulose) (HPC).
The mark [3] stands for this setting: dose: 400.0 mg/kg/injection, schedule: Q01DX009 (ip), vehicle: saline with Tween-80.
Setting [4] is: dose: 400.0 mg/kg/injection, schedule: Q04DX002 (ip), vehicle: Klucel (hydroxypropylcellulose) (HPC).
The mark [5] stands for this setting: dose: 200.0 mg/kg/injection, schedule: Q01DX009 (ip), vehicle: other.
Setting [6] is: dose: 400.0 mg/kg/injection, schedule: Q04DX003 (ip), vehicle: saline.
Setting [7] is: dose: 50.0 mg/kg/injection, schedule: Q01DX009 (ip), vehicle: saline.
Setting [8] is: dose: 400.0 mg/kg/injection, schedule: Q01DX009 (ip), vehicle: Klucel (hydroxypropylcellulose) (HPC).

In the case of `CNNc1cc(CO)cnc1SC`, the survivor count under setting [1] was 0 of 6.
`CCOC(=O)Cc1ccc(N)cc1`: the survivor count under setting [2] is given as 3 of 3.
For the compound `Clc1ccc2c(NCCc3cnc[nH]3)ccnc2c1`, the survivor count under setting [3] is reported as 6 of 6.
As for `CN1CCC(c2ccccc2)(c2ccccc2)OC1`, the survivor count (dose: 200.0 mg/kg/injection, schedule: Q04DX003 (ip), vehicle: saline with Tween-80) is given as 3 of 6 and the survivor count (dose: 400.0 mg/kg/injection, schedule: Q04DX003 (ip), vehicle: saline with Tween-80) was 0 of 6.
On to `CN(C)C(=S)SCCC(=O)O`, for which the survivor count under setting [4] was 0 of 3.
As for `CCCCCCCCCCCC(=O)[O][Sn]([CH2]c1ccccc1)([CH2]c1ccccc1)[CH2]c1ccccc1`, the survivor count runs as follows: (dose: 3.0 mg/kg/injection, schedule: Q01DX009 (ip), vehicle: other) 3 of 6; (dose: 6.0 mg/kg/injection, schedule: Q01DX009 (ip), vehicle: other) 1 of 6; (dose: 6.0 mg/kg/injection, schedule: Q04DX004 (ip), vehicle: other) 2 of 6; (dose: 12.0 mg/kg/injection, schedule: Q01DX009 (ip), vehicle: other) 0 of 6; (dose: 12.0 mg/kg/injection, schedule: Q04DX004 (ip), vehicle: other) 1 of 6; (dose: 25.0 mg/kg/injection, schedule: Q01DX009 (ip), vehicle: other) 0 of 6. Also, the survivor count runs as follows: (dose: 25.0 mg/kg/injection, schedule: Q04DX003 (ip), vehicle: other) 2 of 6; (dose: 25.0 mg/kg/injection, schedule: Q04DX004 (ip), vehicle: other) 1 of 6; (dose: 50.0 mg/kg/injection, schedule: Q01DX009 (ip), vehicle: other) 0 of 6; (dose: 50.0 mg/kg/injection, schedule: Q04DX003 (ip), vehicle: other) 4 of 6; (dose: 100.0 mg/kg/injection, schedule: Q01DX009 (ip), vehicle: other) 0 of 6; (dose: 100.0 mg/kg/injection, schedule: Q04DX003 (ip), vehicle: other) 0 of 6 and 1 of 6. The survivor count was 0 of 6 under setting [5]; 1 of 6 (dose: 200.0 mg/kg/injection, schedule: Q04DX003 (ip), vehicle: other); 0 of 6 (dose: 400.0 mg/kg/injection, schedule: Q04DX003 (ip), vehicle: other).
With `OCCCCN1CCCCC1`, the survivor count under setting [1] is 1 of 4.
Regarding `CCC(Cl)COP(=O)(OCC(Cl)CC)C(CC)OP(=S)(OCC(Cl)CC)OCC(Cl)CC` (stereo not given), the survivor count (dose: 350.0 mg/kg/injection, schedule: Q01DX009 (ip), vehicle: Klucel (hydroxypropylcellulose) (HPC)) is listed as 5 of 6.
Regarding `CCOC(=O)CCC(NC(=O)OCc1ccccc1)C(=O)O` (stereo not given), the survivor count (dose: 400.0 mg/kg/injection, schedule: Q04DX003 (ip), vehicle: Klucel (hydroxypropylcellulose) (HPC)) is 2 of 6.
Regarding `CC(CC(=O)O)[Se][Se]C(C)CC(=O)O` (stereo not given), the survivor count reads like this: under setting [2], 0 of 5; (dose: 600.0 mg/kg/injection, schedule: Q01DX001 (ip), vehicle: Klucel (hydroxypropylcellulose) (HPC)) 0 of 5.
Turning to `NNc1ncccc1[N+](=O)[O-]`, the survivor count under setting [1] is on record as 1 of 4.
With `NCCC1CNCCN1.[Cl][Pd]([Cl])([Cl])[Cl]` (stereo not given), the survivor count (dose: 200.0 mg/kg/injection, schedule: Q01DX001 (ip), vehicle: DMSO) is on record as 1 of 3 and the survivor count (dose: 400.0 mg/kg/injection, schedule: Q01DX001 (ip), vehicle: DMSO) was 0 of 3.
In the case of `CCOC(=O)CCC[P+](c1ccccc1)(c1ccccc1)c1ccccc1`, the survivor count under setting [3] is 0 of 6.
As to `CC1C[N-]1.CC1C[N-]1.[Cl][Pt+2][Cl]` (stereo not given), the survivor count reads like this: (dose: 200.0 mg/kg/injection, schedule: Q01DX009 (ip), vehicle: saline) 0 of 6; under setting [6], 0 of 6.
`O=P(CCl)(Oc1ccc(Cl)cc1)Oc1ccc(Cl)cc1`: the survivor count under setting [1] is 2 of 4.
Turning to `O=C(O)C1CC=CCC1C(=O)O` (stereo not given), the survivor count (dose: 400.0 mg/kg/injection, schedule: Q01DX009 (ip), vehicle: saline) is reported as 2 of 3.
With `COc1ccc2c(c1)C1C=[S+]c3ccccc3C1N2` (stereo not given), the survivor count under setting [7] was 2 of 6.
On to `CS(=O)(=O)c1nc(N)nc2nc[nH]c12`, for which the T/C (dose: 30.0 mg/kg/injection, schedule: Q01DX Z (ip), vehicle: carboxymethylcellulose (CMC)) is 144 % of control. The survivor count runs as follows: (dose: 120.0 mg/kg/injection, schedule: Q01DX Z (ip), vehicle: carboxymethylcellulose (CMC)) 0 of 6; (dose: 150.0 mg/kg/injection, schedule: Q01DX Z (ip), vehicle: methylcellulose (MC)) 2 of 6; (dose: 240.0 mg/kg/injection, schedule: Q01DX Z (ip), vehicle: carboxymethylcellulose (CMC)) 0 of 6; (dose: 250.0 mg/kg/injection, schedule: Q01DX Z (ip), vehicle: methylcellulose (MC)) 0 of 6; (dose: 400.0 mg/kg/injection, schedule: Q01DX001 (ip), vehicle: carboxymethylcellulose (CMC)) 0 of 6.
Take `NC(=S)Nc1cccnc1`: the survivor count by setting is: (dose: 100.0 mg/kg/injection, schedule: Q04DX002 (ip), vehicle: Klucel (hydroxypropylcellulose) (HPC)) 1 of 3; (dose: 200.0 mg/kg/injection, schedule: Q04DX002 (ip), vehicle: Klucel (hydroxypropylcellulose) (HPC)) 1 of 3; under setting [4], 0 of 3.
With `O=[Se]1OCc2ccccc2CO1`, the survivor count (dose: 75.0 mg/kg/injection, schedule: Q01DX001 (ip), vehicle: other) is 1 of 6; the survivor count (dose: 150.0 mg/kg/injection, schedule: Q01DX001 (ip), vehicle: other) was 0 of 6; the survivor count (dose: 300.0 mg/kg/injection, schedule: Q01DX001 (ip), vehicle: other) is recorded as 0 of 6.
`c1ccc(N(c2ccccc2)N(c2ccccc2)c2ccccc2)cc1`: the survivor count is recorded as 6 of 6 (dose: 25.0 mg/kg/injection, schedule: Q01DX009 (ip), vehicle: saline); 6 of 6 under setting [7]; 6 of 6 (dose: 100.0 mg/kg/injection, schedule: Q04DX003 (ip), vehicle: saline); 6 of 6 (dose: 200.0 mg/kg/injection, schedule: Q04DX003 (ip), vehicle: saline); 6 of 6 under setting [1].
On to `CCCOC(CN)C(Cl)(Cl)Cl` (stereo not given), for which the survivor count under setting [6] is recorded as 2 of 6.
On to `O=[N+]([O-])c1ccc(Oc2ccc(S(=O)(=O)O)cc2)cc1`, for which the survivor count runs as follows: (dose: 100.0 mg/kg/injection, schedule: Q04DX002 (ip), vehicle: saline with Tween-80) 3 of 3; (dose: 200.0 mg/kg/injection, schedule: Q04DX002 (ip), vehicle: saline with Tween-80) 3 of 3; (dose: 400.0 mg/kg/injection, schedule: Q04DX002 (ip), vehicle: saline with Tween-80) 3 of 3.
In the case of `COc1ccccc1/C(=C/c1ccc([N+](=O)[O-])cc1)C(=O)O`, the survivor count under setting [8] is 3 of 3.
In the case of `C[n+]1ccc(Nc2ccc(NC(=O)c3ccc(N)cc3)cc2)cc1`, the T/C is, setting by setting: (dose: 100.0 mg/kg/injection, schedule: Q01DX009 (ip), vehicle: water) 130 % of control; (dose: 150.0 mg/kg/injection, schedule: Q01DX009 (ip), vehicle: water) 129 % of control [5 of 6 alive].
On to `CCOc1ccc(Br)cc1`, for which the survivor count under setting [3] is 1 of 3 and 6 of 6.
Consider `COc1ccc(N=NN(C)C)c(C(=O)O)c1`, for which the survivor count (dose: 100.0 mg/kg/injection, schedule: Q01DX009 (ip), vehicle: Klucel (hydroxypropylcellulose) (HPC)) was 0 of 6; the survivor count (dose: 200.0 mg/kg/injection, schedule: Q01DX009 (ip), vehicle: Klucel (hydroxypropylcellulose) (HPC)) is 0 of 6; the survivor count under setting [8] is 0 of 6.
As to `COc1cc(C=O)ccc1OC(=O)Nc1ccc(F)c([N+](=O)[O-])c1`, the survivor count runs as follows: under setting [5], 2 of 6; (dose: 400.0 mg/kg/injection, schedule: Q01DX009 (ip), vehicle: other) 0 of 6.
